Measurements as given in PubChem BioAssay AID504937 (National Center for Advancing Translational Sciences (NCATS), 2011).
The list shows a part of the results, in another mix than the full data. Active and inactive are the calls of the source. The call rests on the fitted dose curve; in most records, active means well fitted inhibition curve with a large enough effect; inconclusive means small, poorly fitted or top-dose-only effect; inactive means no such curve, though single readings can be large or run the other way.

Sequences of proteins named here, by UniProt entry; tags and fusion partners are left off. A change or cut given only in a name is not applied to a line headed by its entry.
UniProt P17405: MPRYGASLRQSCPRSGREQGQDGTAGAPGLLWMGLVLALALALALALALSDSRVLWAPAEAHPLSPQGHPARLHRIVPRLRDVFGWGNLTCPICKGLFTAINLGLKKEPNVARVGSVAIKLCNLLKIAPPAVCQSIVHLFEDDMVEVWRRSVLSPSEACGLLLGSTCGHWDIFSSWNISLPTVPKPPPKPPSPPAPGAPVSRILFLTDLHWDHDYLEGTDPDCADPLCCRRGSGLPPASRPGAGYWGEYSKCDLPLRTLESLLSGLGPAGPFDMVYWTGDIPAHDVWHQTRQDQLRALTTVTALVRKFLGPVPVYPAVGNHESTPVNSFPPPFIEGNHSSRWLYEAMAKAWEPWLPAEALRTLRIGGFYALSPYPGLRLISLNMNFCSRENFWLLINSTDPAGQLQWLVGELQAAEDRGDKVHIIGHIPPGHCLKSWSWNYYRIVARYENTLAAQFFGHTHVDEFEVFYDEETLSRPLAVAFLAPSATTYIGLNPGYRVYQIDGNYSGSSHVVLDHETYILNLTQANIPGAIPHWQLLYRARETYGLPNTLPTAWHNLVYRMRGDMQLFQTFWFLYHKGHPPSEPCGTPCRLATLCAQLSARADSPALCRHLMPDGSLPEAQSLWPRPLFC

What follows are compounds tested against Sphingomyelin phosphodiesterase (Homo sapiens) (UniProt P17405) (assay: Inhibitors of Secretory Acid Sphingomyelinase (S-ASM): qHTS). Details: placental ASM, HMU-PC fluorogenic substrate (series up to 57.5 µM), 60 min.
Source text: Atherosclerosis is the underlying process for cardiovascular disease and thus is a major contributor to disease burden in the population. […] Thus, selective small molecule inhibitors of S-ASM should block LDL modification and reduce aortic LDL retention and may serve as new agents for the treatment of atherosclerosis. In a collaboration between National Heart, Lung, and Blood Institute and the NCGC a high-throughput amenable screen was developed to identify potent and selective small molecule inhibitors of S-ASM. This enzymatic, fluorescent screen uses an ASM enzyme preparation derived from human placenta and was tested against the NIH Molecular Libraries Small Molecule Repository (MLSMR). NIH Chemical Genomics Center [NCGC] NIH Molecular Libraries Probe Centers Network [MLPCN] MLPCN Grant: MH093173-01 Assay Submitter (PI): Alan Remaley, National Heart, Lung, and Blood Institute and Wei Zhen, NIH Chemical Genomics Center
Two microliters of ASM enzyme (1:150 dilution from stock) are dispensed in 1536-well plate. 23 nL of compound and control are pinned into assay plate using the Kalypsys pintool. The plates are then incubated for 10 minutes at ambient room temperature. Then, 2 uL of the flurogenic substrate, HMU-PC0, (9 uM final) are added to the plate. […] Plate is read on ViewLux, with detection set at Ex = 386 (10) nm and Em = 447 (10) nm.
Potency means the concentration at half of the fitted maximal effect.

| SMILES | Potency |
| --- | --- |
| CCCCc1oc2ccccc2c1C(=O)c1cc(I)c(OCCN(CC)CC)c(I)c1 | active: 39.8 µM |
